At least one structure is not confirmed: it was looked up by name or label, or the drawing left a doubt.
Assay: Relative bodyweight in ob/ob AMLN mice
Type: in vivo, mouse
Settings: 30 mg/kg bw day, 4 weeks treatment, FIG. 11
Experimental: ob/ob mice are consistently fibrosis (liver) prone when cholesterol (2%) and 40% fat (containing 18% trans-fatty acids) and 20% fructose are added to a high-caloric diet (i.e., AMLN diet). ob/ob mice on AMLN diet (termed ‘ob/ob AMLN mice’) develop steatohepatitis and fibrosis within a shorter timeframe (<12 weeks) compared with wild-type C57BL/6 mice (AMLN mice) fed the same diet. ob/ob AMLN mice provide an obese diet-induced model of NASH that also allows the study of effects on glycemic control.
Thirty male ob/ob mice (5 weeks old) were fed the AMLN diet for 15 weeks then randomised into 3 groups of 10 mice/group to receive Compound B or Compound A (both at 0.3 mmol/kg bw day) or no treatment (vehicle) for a further 4 weeks. Assessment of the hepatic expression of key genes regulating plasma lipid concentrations (LDLr), hepatic fibrosis (collA1), bile acid transport/re-uptake (Slc51b and Slc10a2) and inflammation (CD68) was made via RNA sequencing at 4 weeks. To assess the effects of Compound B and Compound A on glycemic control, an oral glucose tolerance test (OGTT) was also performed at 3 weeks. An additional group of mice (n=5) were also treated with a PPAR-γ agonist (pioglitazone, 30 mg/kg bw day) was also included to compare effects upon bodyweight.

CCc1ccc(CCOc2ccc(CC3SC(=O)NC3=O)cc2)nc1 (stereo not shown) [pioglitazone, reference compound]
relative bodyweight versus vehicle: significantly increased
